Literature values as cited in patent US9062031B2, “Method of preparing polymorphic pure form A of bazedoxifene acetate” (SANDOZ AG, priority 2010, dated 2015).
The name of at least one read-out is uncertain.

Settings: assumed from higher solubility, supported by bioequivalence study 3068A1-129-US

Q: For `Cc1c(-c2ccc(O)cc2)n(Cc2ccc(OCCN3CCCCCC3)cc2)c2ccc(O)cc12` [Bazedoxifene x acetate form A, 1-[[4-[2-(Hexahydro-1H-azepin-1-Dethoxy]phenyl]methyl]-2-(4-hydroxyphenyl)-3-methyl-1H-indol-5-ol monoacetate], which “Bioavailability compared with form B” value is on record?
A: higher bioavailability than form B
